For 42 sequences, binding signal results are on record in PMC7819943, “Rice protein-binding microarrays: a tool to detect cis-acting elements near promoter regions in rice”.

Protein sequences, listed by entry. Tags and fused reporters are not part of them.
UniProt Q0JBA9, entry or part of it: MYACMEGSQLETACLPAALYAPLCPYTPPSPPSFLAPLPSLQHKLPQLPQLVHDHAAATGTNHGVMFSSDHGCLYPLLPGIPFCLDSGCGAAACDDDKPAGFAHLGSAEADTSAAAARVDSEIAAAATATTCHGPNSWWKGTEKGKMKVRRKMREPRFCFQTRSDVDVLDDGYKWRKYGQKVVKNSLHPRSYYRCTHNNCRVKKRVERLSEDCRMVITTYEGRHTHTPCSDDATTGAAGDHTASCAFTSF

This is one part of the list.

The target in the experiment is OsWRKY34 (Oryza sativa, UniProt Q0JBA9 1-250). Kind of experiment: protein-binding microarray (RPBM); PBS, 2% BSA, 51.3 ng/ul salmon testes DNA, 50 uM zinc acetate, 200 nM TF, 25 C, 1 h; high values mean tight binding. The note with it: protein: recombinant; tags: N-terminal polyhistidine and DsRed monomer fusion (pET32a); label: CyDye5-dUTP incorporated in the synthesized complementary strand; 3' TTTTT single-stranded linker to array surface; dsDNA, one strand shown. Put shortly: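 The binding signal for each feature is its fluorescence intensity in arbitrary units. An Axon 4000B scanner was used to read a custom Agilent array that had been made double-stranded with Cy5-dUTP primer extension, blocked with 2% BSA, incubated at 25 °C for 1 h with 200 nM protein in PBS, 2% BSA, salmon testes DNA and 50 µM zinc acetate, and washed. The protein was an N-terminal polyhistidine–DsRed transcription factor fusion from E. coli BL21-CodonPlus, purified on Ni–NTA.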
Take “TGTCCCTGTCAGCTCCTGCTCTCTTTCCTCTCTTCTCTTTCGGAGTCACCTAGTGCAG”: the binding signal was 8140 fluorescence intensity (a.u.). As to “TCGAATAACTCCACAGGTACTACATATACATGCCATTTCTCGGAGTCACCTAGTGCAG”, the binding signal was 11500 fluorescence intensity (a.u.).

With “TTCTAATCGCCCACCTACTGACATATTGGTCGCATTGATACGGAGTCACCTAGTGCAG”, the binding signal is 9760 fluorescence intensity (a.u.). To “CATTCCATCGCTGGTCCTTTTTTCACCAAATCAGTGCCAACGGAGTCACCTAGTGCAG” belongs 11400 fluorescence intensity (a.u.); to “GAATCTCTATGCATTGTTTCTCCAGTGTTAACATCGTTTCCGGAGTCACCTAGTGCAG”, 9140 fluorescence intensity (a.u.); to “CTGAAGTTCGCCATTGACATTGACTCAATTTGTTTATGCACGGAGTCACCTAGTGCAG”, 8290 fluorescence intensity (a.u.). As for “CTCGGCCAAAAAGAGATATCCCTTTCGCGCTCATCTTATCCGGAGTCACCTAGTGCAG”, the figure is 9980 fluorescence intensity (a.u.); as for “TTCCTCCCGCCGCCGCCGCCGTCTTCGCCTCCTTTATAATCGGAGTCACCTAGTGCAG”, 12700 fluorescence intensity (a.u.).

On to “ATTCCCATCTCTCCACTCTCCCTCCTATCATATGCTCCTCCGGAGTCACCTAGTGCAG”, for which the binding signal is 8390 fluorescence intensity (a.u.). As for “AGCCTGAAGCTGCTTTCGTCGTCACCGGTTGCCGTCTGATCGGAGTCACCTAGTGCAG”, the figure is 9190 fluorescence intensity (a.u.); as for “GACGCGTTCTCGTGTGCTGCATATTGTTTAGCTTGTAAGACGGAGTCACCTAGTGCAG”, 9440 fluorescence intensity (a.u.); as for “CCACGACACCACTCTCACCGCTCTCGCCACGACACATTTTCGGAGTCACCTAGTGCAG”, 8130 fluorescence intensity (a.u.). To “CTGCACTCTCCATTTCAGCGCTTTCCAGCTTTCCTCCTATCGGAGTCACCTAGTGCAG” belongs 9920 fluorescence intensity (a.u.). To “ACACTCTATTAAGAGGATCCGTTTCATTTTTTGTTCCATCCGGAGTCACCTAGTGCAG” belongs 8760 fluorescence intensity (a.u.); to “TACCAGTTCGAAGTTTTCGCATGCACCAACCAATCAATCGCGGAGTCACCTAGTGCAG”, 10600 fluorescence intensity (a.u.); to “AACTCATTATGGATCCGCTCAGTACACCGTACACGGTGACCGGAGTCACCTAGTGCAG”, 8830 fluorescence intensity (a.u.). “ACAAGCTTCTTCTTCACCTCACCTCTCATCTCATCATCCCCGGAGTCACCTAGTGCAG”: the binding signal is 8400 fluorescence intensity (a.u.).

Take “CTGTACTCTACTACACTACGACTACCCATTTTCATCGATCCGGAGTCACCTAGTGCAG”: the binding signal is 9800 fluorescence intensity (a.u.). As for “CTAGCACCCTACACTATAAAACCATATGCATCTGAATTTGCGGAGTCACCTAGTGCAG”, the figure is 8350 fluorescence intensity (a.u.). As for “GTTTGTCATTCTAGCACTGTCCACATTCATATTGATCTTACGGAGTCACCTAGTGCAG”, the figure is 10300 fluorescence intensity (a.u.); as for “GCCACTTTACCATTTTCATCATTTCTTCCATTTTAAGTTTCGGAGTCACCTAGTGCAG”, 12200 fluorescence intensity (a.u.). Turning to “TGTTCTAGCAGTTTTGTCCCATATTCGGGCTATAAATTTTCGGAGTCACCTAGTGCAG”, the binding signal was 10300 fluorescence intensity (a.u.). Take “TCTACTTCCCAAAACTTCTAATTTTTACGTGGAACTAATCCGGAGTCACCTAGTGCAG”: the binding signal was 10400 fluorescence intensity (a.u.). As for “TGTAATCTGTAGGCGTTGACTACCTCGCATGCCACGCAGTCGGAGTCACCTAGTGCAG”, the figure is 10400 fluorescence intensity (a.u.); as for “TGTTGGATGATGTTATTTTGCTATGTTGACTTGTTGAGACCGGAGTCACCTAGTGCAG”, 8290 fluorescence intensity (a.u.); as for “CCATCGTCCACCCTGACTGGCTCCAACTCTTTAGTATTCACGGAGTCACCTAGTGCAG”, 9040 fluorescence intensity (a.u.). As for “TATTTCTTCACCTTTAGTCATGTCACCTCTCACTTCACACCGGAGTCACCTAGTGCAG”, the figure is 8650 fluorescence intensity (a.u.); as for “TGCCTTAGGAGTTAGGTCTGATTTATGGTTTAGTTCCCAACGGAGTCACCTAGTGCAG”, 9580 fluorescence intensity (a.u.). In the case of “CTCAGTTTCGCGTATATCCTAGTACCAACGATCCCCATACCGGAGTCACCTAGTGCAG”, the binding signal is 9640 fluorescence intensity (a.u.). As for “CCTGTTTTTTGTTTTTGGTGGTGGTTCCGTCTCGGTTAATCGGAGTCACCTAGTGCAG”, the figure is 9840 fluorescence intensity (a.u.); as for “TAAATTTGTAGCCCGCTACTCTTCTCTCTTTTTATTTATTCGGAGTCACCTAGTGCAG”, 10700 fluorescence intensity (a.u.). To “TCTGCTTGTACTCATGAGTTGTCATCTTAGATAGATGGGGCGGAGTCACCTAGTGCAG” belongs 10600 fluorescence intensity (a.u.). To “CACAAGGCTGTTCATACAATTGGATTTTGTCTGCAGTTCTCGGAGTCACCTAGTGCAG” belongs 11900 fluorescence intensity (a.u.). As to “ACGTCATTCGTCCATAGCAATTCAAACTTCAAAGTCTCGTCGGAGTCACCTAGTGCAG”, the binding signal was 8400 fluorescence intensity (a.u.). As for “CGCCGCCTCCTCGTTCTTCCCTAGCCGTCGTCACCGCCCGCGGAGTCACCTAGTGCAG”, the figure is 10000 fluorescence intensity (a.u.). As for “GGTCTATAAATTCATGTACATTAGCACAACAACCACTACACGGAGTCACCTAGTGCAG”, the figure is 9780 fluorescence intensity (a.u.); as for “TTTTCCTATTCCTTTGTTTTTTCATTCCTGTGATTCAAATCGGAGTCACCTAGTGCAG”, 11800 fluorescence intensity (a.u.). In the case of “AGCCTCGACTACTGCTTTGACCTTCTCCTTCCCGGCGTCGCGGAGTCACCTAGTGCAG”, the binding signal was 8120 fluorescence intensity (a.u.).

In the case of “CGCTCCTCGCGGCCGCCGCCGCCGCCTCCCTCCTCGCCTTCGGAGTCACCTAGTGCAG”, the binding signal was 8660 fluorescence intensity (a.u.). As to “GCATCTTACTAGCATGCGTTTGCACTCACCAAGGCACTGACGGAGTCACCTAGTGCAG”, the binding signal is 8150 fluorescence intensity (a.u.). As for “CCCCATCAACCTCCTCTTCTTCTTCGCCTCGTCTCGTCTTCGGAGTCACCTAGTGCAG”, the figure is 9670 fluorescence intensity (a.u.); as for “AGCAGCCGATCCCATCACACGCACACTGACACACAGTCACCGGAGTCACCTAGTGCAG”, 8190 fluorescence intensity (a.u.).
